Data on three molecules can be found in PMC5286102.

The chains behind the UniProt entries cited, without tags or fusion partners.
UniProt Q96RU7: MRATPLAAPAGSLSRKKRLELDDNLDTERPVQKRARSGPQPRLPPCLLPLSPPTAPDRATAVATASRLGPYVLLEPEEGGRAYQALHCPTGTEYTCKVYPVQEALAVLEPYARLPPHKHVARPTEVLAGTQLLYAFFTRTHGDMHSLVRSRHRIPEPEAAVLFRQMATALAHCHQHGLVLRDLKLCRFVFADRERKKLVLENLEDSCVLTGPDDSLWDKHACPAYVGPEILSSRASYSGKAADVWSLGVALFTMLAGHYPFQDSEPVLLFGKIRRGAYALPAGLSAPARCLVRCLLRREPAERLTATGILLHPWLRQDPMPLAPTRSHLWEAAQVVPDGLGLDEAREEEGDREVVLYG

No constants are given. Whether binding was seen depends on the method and setting. For part of these data: Binding seen in cells or lysates may run through a third protein. Some entries that bind do so weakly or less than the wild type. For part of these data: Sequences can lack the tags named with a protein.

Test [1] addresses myc-Trib3 (full-length human Trib3 with an N-terminal myc tag) (human) (UniProt Q96RU7). Nature of the test: co-IP; HEK293 cells co-transfected with FLAG-SNRK and myc-Trib3 for 48 h, lysed in Triton-X buffer; anti-FLAG or anti-myc on Protein G Sepharose, 1 h at 4 °C; Western blot.
The target of test [2] is Trib3-GAL4 (mammalian two hybrid fusion) (UniProt Q96RU7). In words: two-hybrid; mammalian two hybrid (Checkmate, Promega) in HEK293 cells; SNRK-VP16 and Trib3-GAL4 co-transfected with pG5luc; firefly luciferase normalized to renilla.
Test [3] addresses T1, Endogenous Trib3 in mouse hearts (mouse (endogenous in mouse heart)) (UniProt Q8K4K2).
T1 sequence: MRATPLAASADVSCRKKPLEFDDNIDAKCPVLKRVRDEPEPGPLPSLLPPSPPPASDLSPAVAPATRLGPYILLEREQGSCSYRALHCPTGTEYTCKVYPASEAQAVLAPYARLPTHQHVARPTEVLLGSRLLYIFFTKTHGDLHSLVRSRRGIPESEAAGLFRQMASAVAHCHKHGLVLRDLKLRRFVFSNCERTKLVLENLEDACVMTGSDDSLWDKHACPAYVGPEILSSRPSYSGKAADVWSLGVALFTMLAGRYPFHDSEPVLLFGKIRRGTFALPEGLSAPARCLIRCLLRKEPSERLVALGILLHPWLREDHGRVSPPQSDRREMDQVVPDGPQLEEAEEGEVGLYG
In words: co-IP; endogenous proteins of mouse heart homogenate; IP buffer 25 mM Tris pH 7.5, 150 mM NaCl, 1 mM EDTA, 5% glycerol, NP40; Trib3 antibody overnight, Protein G Agarose; blot for SNRK.

B1: FLAG-SNRK (full-length human SNRK with an N-terminal FLAG tag) (enzyme, UniProt Q9NRH2 1-765)
chain: MAGFKRGYDGKIAGLYDLDKTLGRGHFAVVKLARHVFTGEKVAVKVIDKTKLDTLATGHLFQEVRCMKLVQHPNIVRLYEVIDTQTKLYLILELGDGGDMFDYIMKHEEGLNEDLAKKYFAQIVHAISYCHKLHVVHRDLKPENVVFFEKQGLVKLTDFGFSNKFQPGKKLTTSCGSLAYSAPEILLGDEYDAPAVDIWSLGVILFMLVCGQPPFQEANDSETLTMIMDCKYTVPSHVSKECKDLITRMLQRDPKRRASLEEIENHPWLQGVDPSPATKYNIPLVSYKNLSEEEHNSIIQRMVLGDIADRDAIVEALETNRYNHITATYFLLAERILREKQEKEIQTRSASPSNIKAQFRQSWPTKIDVPQDLEDDLTATPLSHATVPQSPARAADSVLNGHRSKGLCDSAKKDDLPELAGPALSTVPPASLKPTASGRKCLFRVEEDEEEDEEDKKPMSLSTQVVLRRKPSVTNRLTSRKSAPVLNQIFEEGESDDEFDMDENLPPKLSRLKMNIASPGTVHKRYHRRKSQGRGSSCSSSETSDDDSESRRRLDKDSGFTYSWHRRDSSEGPPGSEGDGGGQSKPSNASGGVDKASPSENNAGGGSPSSGSGGNPTNTSGTTRRCAGPSNSMQLASRSAGELVESLKLMSLCLGSQLHGSTKYIIDPQNGLSFSSVKVQEKSTWKMCISSTGNAGQVPAVGGIKFFSDHMADTTTELERIKSKNLKNNVLQLPLCEKTISVNIQRNPKEGLLCASSPASCCHVI
Consider B1, for which the binding entry in test [1] is “binds”.

B2: SNRK-VP16 (mammalian two hybrid fusion) (enzyme, UniProt Q9NRH2 1-765)
chain: B1 chain
In the case of B2, the binding entry in test [2] is recorded as “binds”.

B3: Endogenous SNRK in mouse hearts (enzyme, UniProt Q8VDU5 1-748)
chain: MAGFKRGYDGKIAGLYDLDKTLGRGHFAVVKLARHVFTGEKVAVKVIDKTKLDTLATGHLFQEVRCMKLVQHPNIVRLYEVIDTQTKLYLILELGDGGDMFDYIMKHEEGLNEDLAKKYFAQIVHAISYCHKLHVVHRDLKPENVVFFEKQGLVKLTDFGFSNKFQPGKKLTTSCGSLAYSAPEILLGDEYDAPAVDIWSLGVILFMLVCGQPPFQEANDSETLTMIMDCKYTVPPRVSAGCRDLITRMLQRDPKRRASLEEIESHPWLQGVDPSPATKYNIPLVSYKNLSEEEHNSIIQRMVLGDIADRDAIVEALETNRYNHITATYFLLAERILREKQEKEIQTRSASPSNIKAQFRQSWPTKIDVPQDLEDDLTATPLSHATVPQSPARAGDNVLNGHRSKGLCDPAKKDELPELAGPALSTVPPASMKPAASGRKCLFRVEEDEEEDEEDKKPVSLSTQVVLRRKPSVTNRLTSRKSAPVLNQIFEEGESDDEFDMDENLPPKLSRLKMNIASPGTVHKRYHRRKSQGRGSSCSSSETSDDDSESRRRLDKDSGFAYSWHRRDSSEGPPGSEGDGGGQSKPSSGGGVDKASPGEQGTGGGSQGGSGGTPSGTAGSSRRCAGPDSSSPSPASASAAPRGAELVQSLKLVSLCLGSQLHGAKYILDPQKALFSSVKVQEKSTWKMCISAPGPSPSADLDPVRTKKLRNNALQLPLCEKTISVNIQRSRKEGLLCASSPASCCHVI
For B3, the binding result in test [3] is given as “binds”.
